Measurements: the supplement of paper PMC10849652
This is one part of the list.

The chains behind the UniProt entries cited, without tags or fusion partners. Where a name states a change or a piece, a line headed by the entry shows the natural chain unless it says otherwise.
UniProt Q9P219: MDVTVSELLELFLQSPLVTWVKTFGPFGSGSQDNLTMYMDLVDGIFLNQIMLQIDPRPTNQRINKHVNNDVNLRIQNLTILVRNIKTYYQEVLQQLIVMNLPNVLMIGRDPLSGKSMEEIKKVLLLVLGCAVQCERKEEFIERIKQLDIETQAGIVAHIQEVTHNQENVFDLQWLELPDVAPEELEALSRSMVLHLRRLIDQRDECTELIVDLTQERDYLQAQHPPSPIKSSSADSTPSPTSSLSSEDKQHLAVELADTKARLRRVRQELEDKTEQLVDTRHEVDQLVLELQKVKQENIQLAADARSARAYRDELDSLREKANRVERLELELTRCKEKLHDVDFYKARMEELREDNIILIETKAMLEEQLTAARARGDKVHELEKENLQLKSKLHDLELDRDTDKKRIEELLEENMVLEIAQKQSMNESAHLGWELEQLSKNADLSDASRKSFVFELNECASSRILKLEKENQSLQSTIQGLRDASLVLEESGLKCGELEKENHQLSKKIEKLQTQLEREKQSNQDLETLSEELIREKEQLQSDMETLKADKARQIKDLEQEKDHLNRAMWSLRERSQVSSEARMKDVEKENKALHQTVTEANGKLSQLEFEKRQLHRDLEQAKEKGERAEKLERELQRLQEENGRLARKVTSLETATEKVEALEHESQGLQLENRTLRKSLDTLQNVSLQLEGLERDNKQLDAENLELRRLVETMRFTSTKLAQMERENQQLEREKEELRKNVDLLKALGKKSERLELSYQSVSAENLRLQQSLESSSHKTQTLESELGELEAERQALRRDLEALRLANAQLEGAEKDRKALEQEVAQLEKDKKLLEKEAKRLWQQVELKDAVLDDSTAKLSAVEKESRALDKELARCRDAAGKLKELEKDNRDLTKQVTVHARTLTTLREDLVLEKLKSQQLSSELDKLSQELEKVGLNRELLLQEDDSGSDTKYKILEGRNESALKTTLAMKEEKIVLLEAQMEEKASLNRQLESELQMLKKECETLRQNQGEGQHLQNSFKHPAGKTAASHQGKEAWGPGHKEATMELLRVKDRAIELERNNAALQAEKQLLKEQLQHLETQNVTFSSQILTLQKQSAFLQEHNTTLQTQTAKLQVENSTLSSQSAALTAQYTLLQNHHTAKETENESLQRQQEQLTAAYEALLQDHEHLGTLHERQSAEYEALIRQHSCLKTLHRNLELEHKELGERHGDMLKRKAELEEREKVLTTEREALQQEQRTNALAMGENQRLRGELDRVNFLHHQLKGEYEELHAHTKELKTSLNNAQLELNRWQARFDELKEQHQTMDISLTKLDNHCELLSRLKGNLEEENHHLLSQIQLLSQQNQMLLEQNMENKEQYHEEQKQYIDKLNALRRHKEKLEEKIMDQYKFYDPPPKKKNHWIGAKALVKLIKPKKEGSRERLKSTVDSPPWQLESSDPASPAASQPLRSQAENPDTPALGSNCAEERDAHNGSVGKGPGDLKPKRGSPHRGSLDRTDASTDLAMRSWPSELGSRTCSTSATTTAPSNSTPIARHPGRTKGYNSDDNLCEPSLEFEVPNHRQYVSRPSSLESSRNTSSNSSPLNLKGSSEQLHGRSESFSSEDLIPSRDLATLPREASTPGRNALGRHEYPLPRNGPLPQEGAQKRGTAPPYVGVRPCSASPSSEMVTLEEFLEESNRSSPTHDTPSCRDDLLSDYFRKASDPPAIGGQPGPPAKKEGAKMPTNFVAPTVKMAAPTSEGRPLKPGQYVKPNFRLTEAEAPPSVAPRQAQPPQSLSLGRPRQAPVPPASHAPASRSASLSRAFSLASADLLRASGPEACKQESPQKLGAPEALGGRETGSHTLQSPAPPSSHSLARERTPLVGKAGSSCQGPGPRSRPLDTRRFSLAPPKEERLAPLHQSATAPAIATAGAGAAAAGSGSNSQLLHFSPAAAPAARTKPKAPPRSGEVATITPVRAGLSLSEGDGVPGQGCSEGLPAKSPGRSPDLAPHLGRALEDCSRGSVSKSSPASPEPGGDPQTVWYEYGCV
UniProt P13994: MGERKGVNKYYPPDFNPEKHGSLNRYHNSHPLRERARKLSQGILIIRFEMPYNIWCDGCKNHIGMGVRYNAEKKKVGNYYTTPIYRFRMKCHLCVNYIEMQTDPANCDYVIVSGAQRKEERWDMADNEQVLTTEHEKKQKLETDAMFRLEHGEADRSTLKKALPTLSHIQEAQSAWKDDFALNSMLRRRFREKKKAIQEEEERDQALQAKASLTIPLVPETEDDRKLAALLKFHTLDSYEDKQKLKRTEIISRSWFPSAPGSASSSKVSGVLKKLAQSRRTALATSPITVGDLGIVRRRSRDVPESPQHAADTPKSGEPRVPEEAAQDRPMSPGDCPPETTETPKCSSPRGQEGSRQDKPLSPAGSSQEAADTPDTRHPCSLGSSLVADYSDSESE
UniProt Q9GZT6: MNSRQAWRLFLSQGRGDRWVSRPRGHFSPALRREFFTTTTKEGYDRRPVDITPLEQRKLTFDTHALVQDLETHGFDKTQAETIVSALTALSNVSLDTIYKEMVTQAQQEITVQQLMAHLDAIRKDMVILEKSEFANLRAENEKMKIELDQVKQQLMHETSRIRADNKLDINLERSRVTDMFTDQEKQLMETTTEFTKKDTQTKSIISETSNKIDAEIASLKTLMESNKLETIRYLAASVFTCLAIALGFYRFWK
UniProt Q96S94: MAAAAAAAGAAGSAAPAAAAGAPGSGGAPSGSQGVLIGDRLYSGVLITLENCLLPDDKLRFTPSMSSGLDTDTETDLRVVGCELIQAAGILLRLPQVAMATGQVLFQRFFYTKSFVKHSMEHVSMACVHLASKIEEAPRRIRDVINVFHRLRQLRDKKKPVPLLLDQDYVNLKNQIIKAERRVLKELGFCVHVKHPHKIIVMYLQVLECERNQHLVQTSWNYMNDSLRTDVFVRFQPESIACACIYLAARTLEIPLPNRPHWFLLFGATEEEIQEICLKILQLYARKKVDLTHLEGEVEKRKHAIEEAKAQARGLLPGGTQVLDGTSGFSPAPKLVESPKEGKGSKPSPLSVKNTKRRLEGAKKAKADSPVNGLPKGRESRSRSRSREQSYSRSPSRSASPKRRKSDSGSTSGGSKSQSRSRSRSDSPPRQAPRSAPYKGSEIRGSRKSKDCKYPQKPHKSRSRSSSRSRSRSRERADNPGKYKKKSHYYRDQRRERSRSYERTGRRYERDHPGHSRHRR
UniProt O15446, whole entry, looked up: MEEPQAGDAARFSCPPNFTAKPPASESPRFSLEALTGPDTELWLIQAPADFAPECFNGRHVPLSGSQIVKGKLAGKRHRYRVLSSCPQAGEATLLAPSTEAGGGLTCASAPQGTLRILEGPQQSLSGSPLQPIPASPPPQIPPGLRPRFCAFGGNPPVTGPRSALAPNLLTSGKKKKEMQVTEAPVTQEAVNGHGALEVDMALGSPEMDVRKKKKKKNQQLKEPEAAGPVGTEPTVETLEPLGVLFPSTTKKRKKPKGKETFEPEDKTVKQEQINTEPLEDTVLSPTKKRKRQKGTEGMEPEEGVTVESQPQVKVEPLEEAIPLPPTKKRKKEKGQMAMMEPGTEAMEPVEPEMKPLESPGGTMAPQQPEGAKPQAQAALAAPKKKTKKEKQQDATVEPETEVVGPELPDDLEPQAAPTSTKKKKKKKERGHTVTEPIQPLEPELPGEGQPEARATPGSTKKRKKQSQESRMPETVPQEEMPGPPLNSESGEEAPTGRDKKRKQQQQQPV
UniProt Q9P0B6: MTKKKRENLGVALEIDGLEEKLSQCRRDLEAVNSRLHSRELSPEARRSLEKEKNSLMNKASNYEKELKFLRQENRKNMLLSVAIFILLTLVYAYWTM
UniProt P42575: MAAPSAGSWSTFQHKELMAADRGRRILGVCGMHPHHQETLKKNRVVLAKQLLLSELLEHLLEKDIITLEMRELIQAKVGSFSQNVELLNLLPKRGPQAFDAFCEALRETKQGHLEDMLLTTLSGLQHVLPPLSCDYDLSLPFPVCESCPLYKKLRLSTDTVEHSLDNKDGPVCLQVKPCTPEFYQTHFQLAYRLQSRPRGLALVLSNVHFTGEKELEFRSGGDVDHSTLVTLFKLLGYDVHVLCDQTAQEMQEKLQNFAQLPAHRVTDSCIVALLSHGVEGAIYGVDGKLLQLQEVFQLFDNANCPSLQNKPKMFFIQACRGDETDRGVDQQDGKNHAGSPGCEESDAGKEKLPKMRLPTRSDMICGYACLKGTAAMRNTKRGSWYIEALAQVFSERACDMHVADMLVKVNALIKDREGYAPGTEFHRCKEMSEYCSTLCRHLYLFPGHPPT
UniProt O60583: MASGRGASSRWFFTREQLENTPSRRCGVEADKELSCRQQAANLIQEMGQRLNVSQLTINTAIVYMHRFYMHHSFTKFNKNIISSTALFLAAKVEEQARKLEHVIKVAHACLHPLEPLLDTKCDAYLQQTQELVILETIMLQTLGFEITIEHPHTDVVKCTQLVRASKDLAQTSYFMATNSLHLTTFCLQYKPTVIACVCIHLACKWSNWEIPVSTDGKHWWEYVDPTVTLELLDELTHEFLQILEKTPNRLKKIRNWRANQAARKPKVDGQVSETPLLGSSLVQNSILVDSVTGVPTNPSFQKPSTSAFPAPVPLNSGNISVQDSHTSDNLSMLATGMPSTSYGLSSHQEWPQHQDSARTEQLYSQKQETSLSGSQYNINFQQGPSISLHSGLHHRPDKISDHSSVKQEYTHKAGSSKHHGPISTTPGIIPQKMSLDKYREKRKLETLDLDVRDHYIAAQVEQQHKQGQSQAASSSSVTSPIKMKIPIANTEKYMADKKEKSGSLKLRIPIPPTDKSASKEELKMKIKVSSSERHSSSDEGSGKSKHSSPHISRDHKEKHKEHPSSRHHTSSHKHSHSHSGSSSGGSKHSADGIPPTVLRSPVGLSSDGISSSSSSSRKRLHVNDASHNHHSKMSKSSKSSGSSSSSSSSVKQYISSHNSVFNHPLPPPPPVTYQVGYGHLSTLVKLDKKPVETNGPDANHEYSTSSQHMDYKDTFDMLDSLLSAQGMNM
UniProt Q8IWD4: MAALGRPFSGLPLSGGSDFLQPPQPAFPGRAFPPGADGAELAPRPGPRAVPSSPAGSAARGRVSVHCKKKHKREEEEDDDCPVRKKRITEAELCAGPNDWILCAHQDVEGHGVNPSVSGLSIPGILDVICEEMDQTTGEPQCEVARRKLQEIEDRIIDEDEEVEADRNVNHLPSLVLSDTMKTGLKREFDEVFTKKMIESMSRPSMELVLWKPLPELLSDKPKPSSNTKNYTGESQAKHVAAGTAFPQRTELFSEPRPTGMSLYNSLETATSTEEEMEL
UniProt P48643, whole entry, looked up: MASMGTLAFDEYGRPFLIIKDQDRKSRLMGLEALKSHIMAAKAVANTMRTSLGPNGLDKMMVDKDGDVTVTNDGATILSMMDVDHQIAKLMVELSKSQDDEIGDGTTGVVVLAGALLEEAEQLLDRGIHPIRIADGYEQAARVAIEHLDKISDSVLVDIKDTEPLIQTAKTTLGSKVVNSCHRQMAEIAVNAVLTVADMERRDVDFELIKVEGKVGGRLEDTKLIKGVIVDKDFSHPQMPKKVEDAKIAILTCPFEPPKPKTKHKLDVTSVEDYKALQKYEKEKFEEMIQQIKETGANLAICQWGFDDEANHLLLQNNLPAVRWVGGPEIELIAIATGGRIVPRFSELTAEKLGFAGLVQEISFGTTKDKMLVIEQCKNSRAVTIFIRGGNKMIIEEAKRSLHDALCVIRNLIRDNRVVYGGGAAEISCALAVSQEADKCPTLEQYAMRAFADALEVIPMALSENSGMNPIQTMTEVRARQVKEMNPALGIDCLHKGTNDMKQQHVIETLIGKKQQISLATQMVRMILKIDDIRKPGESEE
UniProt Q86WR0: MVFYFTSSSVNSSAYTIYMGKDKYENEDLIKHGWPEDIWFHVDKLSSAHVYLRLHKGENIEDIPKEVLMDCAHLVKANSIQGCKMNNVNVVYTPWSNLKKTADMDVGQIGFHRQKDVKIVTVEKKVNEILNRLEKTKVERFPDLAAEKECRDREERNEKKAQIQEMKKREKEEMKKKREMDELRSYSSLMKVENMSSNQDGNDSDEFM
UniProt P35520: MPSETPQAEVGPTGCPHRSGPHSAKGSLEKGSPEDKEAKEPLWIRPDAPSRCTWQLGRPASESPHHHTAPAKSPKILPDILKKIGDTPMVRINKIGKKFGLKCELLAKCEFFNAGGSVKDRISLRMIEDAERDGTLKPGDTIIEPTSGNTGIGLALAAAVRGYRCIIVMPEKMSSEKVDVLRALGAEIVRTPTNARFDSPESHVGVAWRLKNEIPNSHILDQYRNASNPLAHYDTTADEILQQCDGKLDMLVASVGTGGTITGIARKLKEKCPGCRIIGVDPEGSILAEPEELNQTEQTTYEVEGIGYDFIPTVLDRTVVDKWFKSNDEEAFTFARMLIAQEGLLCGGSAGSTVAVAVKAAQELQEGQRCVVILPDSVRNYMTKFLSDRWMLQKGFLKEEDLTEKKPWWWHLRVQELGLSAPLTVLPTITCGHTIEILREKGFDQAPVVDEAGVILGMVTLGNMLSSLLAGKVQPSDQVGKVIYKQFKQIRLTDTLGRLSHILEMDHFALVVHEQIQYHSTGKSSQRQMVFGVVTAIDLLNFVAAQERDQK

The targets below were run with C1=CC=C(C=C1)[C@H](COC2=CC3=C(C=C2)NC(=O)N3)NC(=O)C4=CC=CN(C4=O)CC5=CC(=C(C=C5)F)F (assay: log2 fold change, soluble protein after heating vs DMSO (PISA); higher = thermal stabilisation; K562 lysate, 10 uM; active = over 0.2 and 3.5 SD of the protein, either way, in both replicates (recomputed)).
In short: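 Quantification was by TMTpro 16plex LC-MS/MS with equalised channel sums, applied to the supernatant after 21,000xg for 90 min. Samples were crude K562 extract at 1 mg/mL protein in PBS pH 7.4 with 1 mM MgCl2, treated with 10 μM compound for 30 min, heated for 3 min across 48°C-58°C, pooled and brought to 0.5% NP-40 at 4°C. Values are log-two fold changes in thermal stability relative to solvent controls, from duplicates.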

Target | log2 fold change
CBR1 (UniProt P16152) | inactive: 0.03
CCDC13 (UniProt Q8IYE1) | inactive: -0.09
CCDC50 (UniProt Q8IVM0) | inactive: -0.015
CD46 isoform 2 (UniProt P15529) | inactive: 0.006
CCDC22 (UniProt O60826) | inactive: -0.009
CCDC88C (UniProt Q9P219) | inactive: 0.051
CCDC130 (UniProt P13994) | inactive: 0.01
CBFB isoform 2 (UniProt Q13951) | inactive: 0.012
CCP110 (UniProt O43303) | inactive: -0.026
CASC4 (UniProt Q6P4E1) | inactive: -0.008
CCT6A (UniProt P40227) | inactive: 0.007
CBL (UniProt P22681) | inactive: 0.049
CARHSP1 (UniProt Q9Y2V2) | inactive: -0.031
CCDC90B (UniProt Q9GZT6) | inactive: -0.064
CCNL2 (UniProt Q96S94) | inactive: 0
CASKIN2 (UniProt Q8WXE0) | inactive: 0.046
CCDC43 (UniProt Q96MW1) | inactive: 0.039
CARD8 isoform 5 (UniProt Q9Y2G2) | inactive: 0.004
CD3EAP isoform 2 (UniProt O15446) | inactive: 0.001
CCDC167 (UniProt Q9P0B6) | inactive: -0.15

Target | log2 fold change
CCDC144A (UniProt A2RUR9) | inactive: 0.007
CD226 (UniProt Q15762) | inactive: 0.026
CCNYL1 (UniProt Q8N7R7) | inactive: -0.007
CCT3 (UniProt E9PM09) | inactive: -0.103
CARD9 (UniProt Q9H257) | inactive: -0.039
CASP8 isoform 9 (UniProt Q14790) | inactive: -0.034
CAVIN1 (UniProt Q6NZI2) | inactive: 0.038
CASP2 (UniProt P42575) | inactive: 0.018
CCNT2 (UniProt O60583) | inactive: 0.049
CCZ1 (UniProt P86791) | inactive: 0.01
CCDC117 (UniProt Q8IWD4) | inactive: 0.075
CCRL2 isoform 2 (UniProt O00421) | inactive: -0.014
CCDC102A (UniProt Q96A19) | inactive: -0.029
CCT5 (UniProt P48643) | inactive: 0.004
CBLB (UniProt Q13191) | inactive: 0.005
CCDC25 (UniProt Q86WR0) | inactive: 0.008
CCDC12 (UniProt Q8WUD4) | inactive: 0.114
CCDC174 (UniProt Q6PII3) | inactive: 0.02
CBS (UniProt P35520) | inactive: -0.017

Rewritten as comma-separated lines: part of the list above.
Target,log2 fold change
CCT5 (UniProt P48643),inactive: 0.004
CBLB (UniProt Q13191),inactive: 0.005
